{"sequences": {"note": "Sequences of proteins named here, by UniProt entry; tags and fusion partners are left off.", "UniProt Q02780": "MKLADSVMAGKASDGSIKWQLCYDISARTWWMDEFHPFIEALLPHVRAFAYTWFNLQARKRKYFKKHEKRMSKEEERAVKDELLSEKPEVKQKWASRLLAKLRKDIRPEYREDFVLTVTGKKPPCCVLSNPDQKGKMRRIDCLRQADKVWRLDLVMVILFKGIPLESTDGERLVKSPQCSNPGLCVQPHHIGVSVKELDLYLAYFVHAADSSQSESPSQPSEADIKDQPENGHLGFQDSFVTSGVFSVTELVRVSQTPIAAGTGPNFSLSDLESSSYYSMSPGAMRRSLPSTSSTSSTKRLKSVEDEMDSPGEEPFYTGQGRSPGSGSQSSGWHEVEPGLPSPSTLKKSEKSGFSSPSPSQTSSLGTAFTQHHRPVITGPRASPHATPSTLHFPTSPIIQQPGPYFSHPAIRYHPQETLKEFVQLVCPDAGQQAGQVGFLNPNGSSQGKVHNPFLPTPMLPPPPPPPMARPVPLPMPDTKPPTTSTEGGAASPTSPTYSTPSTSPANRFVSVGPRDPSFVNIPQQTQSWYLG"}, "source": "paper PMC6718408", "key": {"[1]": {"target": "Flag-tagged Nfib (UniProt P97863)", "assay": "co-IP; HEK293T co-transfected with Flag-tagged Nfia or Nfib and HA-tagged YAP1 fusion-related proteins; lysed 2 days after transfection in IP buffer (20 mM Tris-HCl pH 8.0, 200 mM NaCl, 1 mM EDTA, 1 mM EGTA, 1% Triton X-100); anti-FLAG M2 magnetic beads, 4 h at RT; western blot"}, "[2]": {"target": "Flag-tagged Nfia (UniProt Q02780)", "assay": "co-IP; HEK293T co-transfected with Flag-tagged Nfia or Nfib and HA-tagged YAP1 fusion-related proteins; lysed 2 days after transfection in IP buffer (20 mM Tris-HCl pH 8.0, 200 mM NaCl, 1 mM EDTA, 1 mM EGTA, 1% Triton X-100); anti-FLAG M2 magnetic beads, 4 h at RT; western blot"}}, "note": "Results are given in words; binding and its absence hold for the method and conditions named. In cells and extracts the contact can be indirect.", "data": [{"substance": "YAP1 wild type, HA-tagged (from UniProt P46937-1 1-504)", "values": [{"measurement": "binding", "setting": "[1]", "result": "no binding"}, {"measurement": "binding", "setting": "[2]", "result": "no binding"}]}]}
